In patent US20240376222A1:

What was measured:
[1] = target: cynomolgus TfR extracellular domain (ECD) (cynomolgus); experiment: phage ELISA, scFv phage on coated TfR, anti-M13-HRP, single point
[2] = target: cynomolgus TfR extracellular domain (ECD) (cynomolgus); experiment: BLI (Octet), IgG1 30 ug/mL on Protein A sensor, 200 nM antigen, maximum association signal
[3] = target: cynomolgus TfR extracellular domain (ECD) (cynomolgus); experiment: Octet BLI, IgG1 on Protein A biosensors
[4] = target: cynomolgus TfR extracellular domain (ECD) (cynomolgus); experiment: BLI (Octet), 5B6 loaded on sensor, CynoTfR at 400 to 3.13 nM
[5] = target: cynomolgus TfR extracellular domain (ECD) (cynomolgus); experiment: BLI (Octet), 4G1 loaded on sensor, CynoTfR at 400 to 3.13 nM

B1: 8A5 (antibody, V domains shown)
VH: QVQLVQSGAEVKKPGESLRISCKGSGYSFTSYWISWVRQMPGKGLEWMGRIDPSDSYTNYSPSFQGHVTISADKSISTAYLQWSSLKASDTAIYYCARARTWFDAFDIWGQGTTVTVSS
VL: QAVVTQPPSASGTPGQRVTISCSGGSSNIGRYSVNWYQQLPGTAPKLLINSNIQRPSGVPDRFSGSKSGTSASLAISGLQSEDEADYHCAAWDDSLKGWVFGGGTKVTVL
binding [1]: binds
binding [2]: binds
binding [3]: binds

B2: 1C8 (antibody, V domains shown)
VH: QVQLVQSGAEVKKPGSSMKVSCKASGGTFSSYAISWVRQAPGQGLEWMGGIIPIFGTAKYAQKFQGRVTITADESTTTAYMELSSLSSEDTAVYYCARSLGWYYAFDIWGQGTMVTVSS
VL: DIVMTQSPSTLSASVGDRVTITCRASQNINNWLAWYQQKPGKAPKLLIYKASTAESGVPSRFSGSGFGTEFTLTISSLQPDDFASYYCQQYKNYPYSNLYTFGQGTKVDIK
binding [1]: binds
binding [2]: binds
binding [3]: binds

B3: 7B10 (antibody, V domains shown)
VH: QVQLVQSGAEVKKPGASVKVSCKASGYTFTSYGISWVRQAPGQGLEWMGWISAYNGNTNYAQKLQGRVTMTTDTSTSTAYMELRSLRSDDTAVYYCARDQKLLHILYYYGMDVWGQGTTVIVSS
VL: DIVMTQSPLSLSVTPGEPASISCRSSQSLLHSNGNNYLDWYLQKPGQSPQLLIYLGSNRASGVPDRFSGSGSGTDFSLKINKVEAEDVGVYYCMQALQTAYTFGQGTKLEIK
binding [1]: binds
binding [2]: binds
binding [3]: binds

B6: 3H8 (antibody, V domains shown)
VH: QVQLVQSGAEVKKPGESLRISCKGSGYSFTSYWISWVRQMPGKGLEWMGRIDPSDSYTNYSPSFQGHVTISADKSISTAYLQWSSLKASDTAMYYCARHPPRSTRGDYGMDVWGQGTMVTVSS
VL: QAVVTQPPSVSGTPGQRVTISCSGSNSNIGSYIVNWYQQLPGTAPKLLIWGNDRRPSGVPDRVSASKSGTSASLAISGLQSEDEGDYYCAAWDNILNNYVFGPGTQLTVL
binding [1]: binds
binding [2]: binds
binding [3]: binds

B8: 4G1 (antibody, V domains shown)
VH: EVQLLESGGGLIQPGGSLRLSCAASGFSVSSYYMNWVRQAPGKGLEWVSNTYTDGSTSYADSVGGRFSVSRDNSKNTLHLQMNSLRVEDTAVYYCAREGDGYNSGGLDYWGQGTLVTVSS
VL: DIQLTQSPASLSASLGDRVTITCRASQSIGTYLNWYQQRPGQAPKLLIFGTSSLQSGVPSRFSGSGSGTDFTLTISSLQPEDLATYYCQQTYITPRTFGQGTKVEIK
binding [1]: binds
binding [2]: binds
binding [5]: binds
binding [3]: binds

Now from value to binder:

binding [1]: binds
binding [2]: binds
binding [3]: binds
B4: 8G5 (antibody, V domains shown)
VH: QVQLVQSGAEVKKPGASVKVSCKASGYTFTSYGISWVRQAPGQGLEWMGWISAYNGNTNYAQKLQGRVTMTTDTSTSTAYMELRSLRSDDTAVYYCARVGYYYYGMDVWGQGTTVTVSS
VL: QSVLTQPPSVSGAPGQRVTISCTGSSSNIGAGFDVHWYQQLPGTAPKLLIYANSNRPSGVPDRFSASKSGTSASLAITGLQAEDEADYYCQSYDRSLSGYVFGSGTKVTVL

binding [1]: binds
binding [2]: binds
binding [3]: binds
B5: 1B2 (antibody, V domains shown)
VH: QVQLVQSGAEVKKPGESLRISCKGSGYSFTSYWISWVRQMPGKGLEWMGRIDPSDSYTNYSPSFQGHVTISADKSISTAYLQWSSLKASDTAMYYCARHPLAYCGGDCQRGFDYWGQGTLVTVSS
VL: QPVLTQPPSVSVSPGQTARITCSGDKLREDLTSWYQQKPGQSPVLVIYQDSKRPSGIPARFSGSISGSTATLTISGTQAVDEADYYCQAWDNSVDYVFGTGTKVTVL

binding [1]: binds
binding [4]: binds
binding [2]: binds
binding [3]: binds
B7: 5B6 (antibody, V domains shown)
VH: PVLLVQSGAEVKKPGSSVKVSCKASGGTFSSYAISWVRQAPGQGLEWMGGIIPIFGTANYAQKFQGRVTITADESTSTAYMELSSLRSEDTAVYYCAVSIFGVVIPLDYWGQGTLVIVSS
VL: QPVLTQSPSVSLAPGQTAKITCGGTNIGRKSVHWYQQKPGQAPVMVIYYDSDRPSGIPERFAGSNSGNTATLTISRVEAGDEAVYYCQVWDSSSASGVFGGGTKVTVL

Results are given in words; binding and its absence hold for the method and conditions named. A result given as binding can be weak or reduced; the word gives no strength. Each block holds one binder with its values, some of them ahead of it.
